According to PubChem BioAssay AID540256 (National Center for Advancing Translational Sciences (NCATS), 2011):
The campaign covered roughly 300,000 compounds. About 3,700 (1.2%) were called active. This list was built around the results that the source calls inconclusive (neither active nor inactive); the mix of calls is not that of the screen. Calls come from the whole dose curve; tested in HEK293 cells. Where the call is inconclusive, the potency comes from a doubtful curve fit.

Test: qHTS for Inhibitors of binding or entry into cells for Lassa Virus; note: nearly all actives have a fitted effect of over 50% in size
Conditions: Lassa virus pseudotype entry inhibition, cell reporter; series mostly up to 37.9 µM
Potency is the fitted concentration of half-maximal effect.

Row | SMILES | Potency
1 | CCOC(=O)c1ccc(S(=O)(=O)N2CCN(C3CCCC3)CC2)cc1 | inactive
2 | CC1CC(C)CN(CCOCCSc2ccccc2)C1 (configuration not stated) | active: 9.2 µM
3 | Cc1ccc(N(CC(=O)Nc2ccccc2-c2ccccc2)S(=O)(=O)c2ccccc2)c(C)c1 | inconclusive: 13 µM [inhibitor, partial curve, poor fit]
4 | C/C(=N\NC(=S)NCc1ccccc1)c1ccccc1 | inconclusive: 2.91 µM [inhibitor, full curve, poor fit]
5 | COc1ccc(C(=O)NC(=S)NNC(=O)[C@H]2C[C@@H]2c2ccccc2)cc1OC | inconclusive: 2.51 µM [inhibitor, full curve, poor fit]
6 | COc1ccc(C(=O)NC2CCCc3ccccc32)cc1[N+](=O)[O-] (configuration not stated) | inconclusive: 3.98 µM [inhibitor, full curve, poor fit]
7 | COc1ccc(OCC(=O)NC(=S)Nc2ccc(N3CCOCC3)c(Cl)c2)cc1 | inactive
8 | Cc1ccccc1-c1nc(CN2CCC(C(=O)NCCCN3CCCC3)CC2)c(C)o1 | inconclusive: 29.1 µM [inhibitor, single point]
9 | Cc1ccc(-c2nn(-c3ccccc3)cc2C2CC(c3ccccc3)=NN2C(=O)CCC(=O)O)cc1 (configuration not stated) | inconclusive: 12.6 µM [inhibitor, partial curve, poor fit]
10 | COc1ccc(-c2nc(C#N)c(N3CCc4ccccc4C3)o2)cc1OC | inconclusive: 16.4 µM [inhibitor, partial curve, poor fit]
11 | Cc1cc(=O)[nH]c(N/N=C/c2ccccn2)n1 | active: 7.08 µM
12 | Cc1ccc(C(=O)Nc2cc(-c3nc4ncccc4o3)ccc2C)c(C)c1 | inactive
13 | Cc1nc2c(C(=O)N3CCN(c4ccccn4)CC3)cnn2c(C)c1Cc1cccc(Cl)c1 | inactive
14 | Clc1ccc(CNc2ccc(CNc3ncn[nH]3)cc2)c(Cl)c1 | inconclusive: 4.47 µM [inhibitor, full curve, poor fit]
15 | CCOc1ccc(OCC)c(NC(=O)CN2CCN(c3cccc(C)c3)CC2)c1 | inconclusive: 7.3 µM [inhibitor, partial curve]
16 | Cc1cccc(N2CCN(C(=O)Cc3c(C(=O)O)c(C)cn3C)CC2)c1C | inactive
17 | S=C(NCc1ccccc1)NCc1cccc(CNC(=S)NCc2ccccc2)c1 | inconclusive: 18.3 µM [inhibitor, single point]
18 | O=S1(=O)CC(N2CCCC2)CN1Cc1cn(Cc2ccc(C(F)(F)F)cc2)nn1 (configuration not stated) | inconclusive: 0.25 µM [inhibitor, full curve, poor fit]
19 | CCN(CC(=O)Nc1ccccc1OC)CC(=O)Nc1ccccc1C(F)(F)F | inconclusive: 35.5 µM [inhibitor, single point]
20 | COc1ccc2ccccc2c1/C=N/NC(=O)c1sc(N)c(C#N)c1C | inconclusive: 12.6 µM [activator, partial curve, poor fit]
21 | COc1ccc(-c2noc(CSc3nnc(C)n3-c3ccc(C)cc3)n2)cc1OC | inconclusive: 3.98 µM [inhibitor, full curve, poor fit]
22 | Cc1ccc(C(=O)N2CCc3cc(CNS(=O)(=O)c4cccs4)ccc32)cc1 | inconclusive: 11.2 µM [inhibitor, partial curve, poor fit]
23 | Cn1ccnc1SCC(=O)c1cccc(C(F)(F)F)c1 | inactive
24 | CC(c1ccccc1F)n1cc(C(=O)NCCc2ccco2)nn1 (configuration not stated) | inconclusive: 15.8 µM [inhibitor, single point]

Row | SMILES | Potency
25 | O=C(Nc1nc2c(s1)CCCCCC2)Nc1ccc(F)cc1F | inconclusive: 5.62 µM [inhibitor, single point]
26 | CCNC(=O)c1nc[nH]c1C(=O)NCC | inconclusive: 35.5 µM [activator, single point]
27 | O=C1C(=O)N(Cc2cccnc2)C(c2ccccn2)/C1=C(/O)c1ccccc1 (configuration not stated) | inactive
28 | CC1(C)CC(=O)c2cc(OCC(=O)NCCCN3CCN(c4ccc(F)cc4)CC3)ccc2O1 | inconclusive: 20.6 µM [inhibitor, single point]
29 | CCOc1ccccc1NC(=O)Cn1ncc2c(=O)oc3ccc(C)cc3c21 | inconclusive: 5.62 µM [inhibitor, single point]
30 | CCN(CC)CCOCCOC(=O)C(CC)(CC)c1ccccc1 | inconclusive: 0.398 µM [inhibitor, full curve, poor fit]
31 | CC(OC(=O)c1ccc2c(=O)n3c(nc2c1)CCCCC3)C(=O)Nc1ccc(Cl)cn1 (configuration not stated) | inactive
32 | Cc1nc(NCC2CCCO2)c2nnn(Cc3c(F)cccc3Cl)c2n1 (configuration not stated) | inconclusive: 0.158 µM [activator, single point]
33 | O=C(NCCc1ccccc1)C(=O)c1c[nH]c2ccccc12 | inconclusive: 17.8 µM [inhibitor, single point]
34 | C[C@@H]1COc2cccc(NCCO)c2S(=O)(=O)N1 | inactive
35 | CCN(CC(=O)Nc1c(C(=O)OC)[nH]c2ccc(C)cc12)c1ccc2c(c1)OCO2 | inactive
36 | CCOC(=O)c1c(-c2ccc(C)o2)csc1NC(=O)CSc1nncs1 | inconclusive: 16.4 µM [inhibitor, single point]
37 | CCOC(=O)C(C)n1cnc2c(cnn2-c2ccc(Cl)cc2)c1=O (configuration not stated) | inactive
38 | CC(=NNC(=O)c1cc(C)nc2ccccc12)c1ccc(N2CCOCC2)cc1 | inactive
39 | CC(C)(C)c1ccc(CN(Cc2ccco2)Cc2nnnn2C2CCCC2)cc1 | inconclusive: 10 µM [inhibitor, partial curve]
40 | CCN(CC)c1nc2n(c(=S)n1)CCS2 | inconclusive: 20.6 µM [activator, partial curve, poor fit]
41 | Cn1c(-c2ccc3c(c2)OCO3)cnc1NCc1cccc(Cl)c1 | inconclusive: 5.8 µM [activator, single point]
42 | NS(=O)(=O)c1ccc(NC(=O)/C=C/c2cccs2)cc1 | inactive
43 | O=C(Nc1ccccc1F)Nc1ccc([N+](=O)[O-])cc1Cl | inactive
44 | COc1ccc(OCC(=O)Nc2ccc3c(c2)nc(CCNC(C)=O)n3C)cc1 | inactive
45 | COc1ccccc1-n1cnc2sc(-c3ccccc3)cc2c1=O | inactive
46 | COCc1nnc(NC(=O)CCS(=O)(=O)c2ccccc2)s1 | inconclusive: 11.2 µM [inhibitor, partial curve, poor fit]
47 | CC(C)N1CCN(S(=O)(=O)c2ccccc2)c2ccccc21 | inactive
48 | O=C(/C=C/c1ccccc1Cl)Nc1ccc(Cl)cn1 | inactive

Records 31–33, quoted:
Row | SMILES | Potency
31 | CC(OC(=O)c1ccc2c(=O)n3c(nc2c1)CCCCC3)C(=O)Nc1ccc(Cl)cn1 (configuration not stated) | inactive
32 | Cc1nc(NCC2CCCO2)c2nnn(Cc3c(F)cccc3Cl)c2n1 (configuration not stated) | inconclusive: 0.158 µM [activator, single point]
33 | O=C(NCCc1ccccc1)C(=O)c1c[nH]c2ccccc12 | inconclusive: 17.8 µM [inhibitor, single point]

Remaining list, next part.

Row | SMILES | Potency
49 | COc1ccc(NS(=O)(=O)c2ccc(C)c(C(=O)NCC(c3cccs3)N3CCOCC3)c2)cc1 (configuration not stated) | inactive
50 | CCOC(=O)N1CCN(C(=O)c2cc(COc3ccc(OC)cc3Cl)on2)CC1 | inconclusive: 11.2 µM [inhibitor, partial curve, poor fit]
51 | COc1ccc(-c2csc(Nc3ccc(O)cc3)n2)cc1 | inconclusive: 35.5 µM [inhibitor, single point]
52 | O=C(/C=C/c1cccc(C(F)(F)F)c1)Nc1cccc(C(F)(F)F)c1 | inconclusive: 14.6 µM [inhibitor, partial curve, poor fit]
53 | COc1cccc(CN2CC(C(=O)NCc3cnn(C)c3)CCC2=O)c1 (configuration not stated) | inconclusive: 2.24 µM [activator, partial curve, poor fit]
54 | CC(C)c1ccc(NC(=O)c2ccc3c(c2)CCN3S(=O)(=O)c2ccccc2)cc1 | inconclusive: 1.78 µM [inhibitor, full curve, poor fit]
55 | CC#CCCc1nc2ccccc2c(=O)n1N | inactive
56 | COc1cc(OC)cc(-c2cc3nc(C)c(CCC(=O)NCc4ccccc4)c(C)n3n2)c1 | active: 8.91 µM
57 | CCOc1ccccc1C(=O)NC1(C(F)(F)F)NC(=O)N(CCc2ccc(OC)c(OC)c2)C1=O (configuration not stated) | inconclusive: 39.8 µM [inhibitor, partial curve, poor fit]
58 | O=C1CS/C(=N\C(=O)N2c3ccccc3Sc3ccccc32)N1 | inconclusive: 32.6 µM [inhibitor, partial curve, poor fit]
59 | COc1ccccc1CN(C)CC(=O)Nc1cccc(S(=O)(=O)N2CCCCC2)c1 | inconclusive: 10 µM [inhibitor, partial curve, poor fit]
60 | S=C(NC1CC1)N1CCN(c2ccc(Cl)cc2)CC1 | inactive
61 | O=C(NC1CCCCC1NC(=O)c1ccco1)c1ccco1 (configuration not stated) | inactive
62 | O=C(CSCc1cnn(-c2ccccc2)c1-n1cccc1)NCc1ccc(Cl)cc1 | inconclusive: 3.55 µM [activator, partial curve, poor fit]
63 | CC(NC(=O)c1cc(COc2ccccc2)on1)c1nccs1 (configuration not stated) | inconclusive: 3.55 µM [inhibitor, single point]
64 | Cc1ccccc1Nc1nn2c(=O)c3ccccc3nc2s1 | inactive
65 | COc1ccccc1N1CCN(C(=O)c2cn(CC(C)C)c(=O)c3c2c2ccccc2n3C)CC1 | inconclusive: 5.62 µM [inhibitor, single point]
66 | COc1ccccc1Nc1nc2nonc2nc1N1CCCCC1C (configuration not stated) | inactive
67 | CNC(=S)N(C)/N=C1/C(=O)N(Cc2c(Cl)cccc2Cl)c2ccccc21 | inconclusive: 11.2 µM [inhibitor, partial curve]
68 | C=CCn1c(SCC(=O)NC2CC2)nnc1-c1cccc(OC)c1 | inactive
69 | Fc1ccc(/C=C\c2nccc3c2[nH]c2ccccc23)cc1 | inactive
70 | O=c1oc2ccccc2c(NC2CCCCC2)c1NS(=O)(=O)c1ccc(Br)cc1 | inactive
71 | Cc1csc(SCC(=O)Nc2cc(S(=O)(=O)N(C)C)ccc2C)n1 | inactive
72 | NC(N)=NS(=O)(=O)c1ccc(NC(=S)NC(=O)/C=C/c2ccc(F)cc2)cc1 | inactive
